Here are results for five sequences from patent US20250051407.

Data set [1] deals with T1, DBP050 (synthetic construct).
T1 sequence: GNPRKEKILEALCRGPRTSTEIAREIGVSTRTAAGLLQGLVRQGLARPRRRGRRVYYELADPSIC
The experiment in a line: flow cytometry. To be noted: 1 uM dsDNA with avidity; protein on the cell surface; protein details: yeast display (pETcon3, c-Myc); label: biotin. (In flow cytometry, cells or beads pass a laser one at a time.)

The test system of data set [2] is T2, DBP049 (synthetic construct).
T2 sequence: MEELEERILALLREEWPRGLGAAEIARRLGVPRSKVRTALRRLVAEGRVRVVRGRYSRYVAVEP
Briefly: flow cytometry. To be noted: 1 uM dsDNA with avidity; protein on the cell surface; protein details: yeast display (pETcon3, c-Myc); label: biotin.

In data set [3] the test system is T3, DBP069 (synthetic construct).
T3 sequence: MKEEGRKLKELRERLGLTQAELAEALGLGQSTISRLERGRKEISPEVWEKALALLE
The experiment in a line: flow cytometry. The settings on record: prefers less than 3 of 13 targets; protein on the cell surface; protein details: yeast display (pETcon3, c-Myc); label: biotin.

The subject of data set [4] is T4, DBP068 (synthetic construct).
T4 sequence: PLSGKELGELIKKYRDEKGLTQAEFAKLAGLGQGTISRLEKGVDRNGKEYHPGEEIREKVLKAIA
Briefly: flow cytometry. The settings on record: 1 uM dsDNA with avidity; protein on the cell surface; protein details: yeast display (pETcon3, c-Myc); label: biotin.

For data set [5], the system named is T5, DBP057 (synthetic construct).
T5 sequence: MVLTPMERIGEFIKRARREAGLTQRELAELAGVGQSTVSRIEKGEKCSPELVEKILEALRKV
The experiment in a line: flow cytometry. The settings on record: strong binding to alternate target sharing a 6 bp stretch; protein on the cell surface; protein details: yeast display (pETcon3, c-Myc); label: biotin.

Data set [6] has as its system T6, DBP045 (synthetic construct).
T6 sequence: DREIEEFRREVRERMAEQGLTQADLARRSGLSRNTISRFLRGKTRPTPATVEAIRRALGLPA
The experiment in a line: flow cytometry. The settings on record: 1 uM dsDNA with avidity; protein on the cell surface; protein details: yeast display (pETcon3, c-Myc); label: biotin.

Data set [7] deals with T7, DBP046 (synthetic construct).
T7 sequence: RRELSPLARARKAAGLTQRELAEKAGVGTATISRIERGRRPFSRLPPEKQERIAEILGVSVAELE
The experiment in a line: flow cytometry. The settings on record: 1 uM dsDNA with avidity; protein on the cell surface; protein details: yeast display (pETcon3, c-Myc); label: biotin.

For data set [8], the system named is T8, DBP090 (synthetic construct).
T8 sequence: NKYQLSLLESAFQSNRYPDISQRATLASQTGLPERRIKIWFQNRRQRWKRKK
Briefly: flow cytometry. The settings on record: protein on the cell surface, protein details: yeast display (pETcon3, c-Myc), label: biotin.

Data set [9] deals with T9, DBP071 (synthetic construct).
T9 sequence: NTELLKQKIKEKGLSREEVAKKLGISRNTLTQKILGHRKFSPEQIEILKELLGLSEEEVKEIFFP
The experiment in a line: flow cytometry. To be noted: 1 uM dsDNA with avidity; protein on the cell surface; protein details: yeast display (pETcon3, c-Myc); label: biotin.

Data set [10] concerns T10, DBP080 (synthetic construct).
T10 sequence: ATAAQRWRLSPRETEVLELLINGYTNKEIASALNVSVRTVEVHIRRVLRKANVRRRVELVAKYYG
Briefly: flow cytometry. To be noted: 1 uM dsDNA with avidity; protein on the cell surface; protein details: yeast display (pETcon3, c-Myc); label: biotin.

The subject of data set [11] is T11, DBP035 purified (synthetic construct).
T11 sequence: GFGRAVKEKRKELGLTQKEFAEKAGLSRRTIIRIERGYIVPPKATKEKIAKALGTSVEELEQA
The experiment in a line: BLI. The settings on record: range for all purified designs; PBS, 1% BSA, 0.05% Tween 20; purified recombinant protein; protein details: His tag; label: biotin.

The subject of data set [12] is T12, DBP006 purified (synthetic construct).
T12 sequence: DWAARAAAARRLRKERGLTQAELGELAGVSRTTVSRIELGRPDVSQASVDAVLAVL
The experiment in a line: BLI. The settings on record: range for all purified designs; PBS, 1% BSA, 0.05% Tween 20; purified recombinant protein; protein details: His tag; label: biotin.

Data set [13] has as its system T13, DBP007 (synthetic construct).
T13 sequence: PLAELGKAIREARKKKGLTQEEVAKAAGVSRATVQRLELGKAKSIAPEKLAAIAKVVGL
Briefly: flow cytometry. To be noted: 1 uM dsDNA without avidity; protein on the cell surface; protein details: yeast display (pETcon3, c-Myc); label: biotin.

Data set [14] relates to T14, DBP023 (synthetic construct).
T14 sequence: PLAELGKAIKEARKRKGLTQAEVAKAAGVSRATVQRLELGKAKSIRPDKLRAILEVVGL
The experiment in a line: flow cytometry. To be noted: bound most of the 13 targets; protein on the cell surface; protein details: yeast display (pETcon3, c-Myc); label: biotin.

In data set [15] the test system is T15, DBP024 (synthetic construct).
T15 sequence: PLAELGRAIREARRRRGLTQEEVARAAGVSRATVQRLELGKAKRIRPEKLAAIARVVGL
Briefly: flow cytometry. To be noted: 1 uM dsDNA without avidity; protein on the cell surface; protein details: yeast display (pETcon3, c-Myc); label: biotin.

Data set [16] relates to T16, DBP011 (synthetic construct).
T16 sequence: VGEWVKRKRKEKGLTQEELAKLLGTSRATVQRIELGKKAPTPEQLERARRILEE
Briefly: flow cytometry. To be noted: 1 uM dsDNA without avidity; protein on the cell surface; protein details: yeast display (pETcon3, c-Myc); label: biotin.

In data set [17] the test system is T17, DBP031 (synthetic construct).
T17 sequence: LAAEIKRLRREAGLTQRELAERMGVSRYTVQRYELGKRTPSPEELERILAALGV
The experiment in a line: flow cytometry. To be noted: 1 uM dsDNA without avidity; protein on the cell surface; protein details: yeast display (pETcon3, c-Myc); label: biotin.

Data set [18] has as its system T18, DBP006 (synthetic construct).
T18 sequence: T12 sequence
Briefly: flow cytometry. The settings on record: specificity for TGCACA; strong preference for designed target; protein on the cell surface; protein details: yeast display (pETcon3, c-Myc); label: biotin.

Data set [19] has as its system T19, DBP035 (synthetic construct).
T19 sequence: T11 sequence
The experiment in a line: flow cytometry. The settings on record: 1 uM dsDNA yeast display; 3 base position specificity; protein on the cell surface; protein details: yeast display (pETcon3, c-Myc); label: biotin.

The test system of data set [20] is T20, DBP026 (synthetic construct).
T20 sequence: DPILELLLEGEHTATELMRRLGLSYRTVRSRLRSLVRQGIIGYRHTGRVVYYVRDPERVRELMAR
Briefly: flow cytometry. The settings on record: 1 uM dsDNA without avidity; protein on the cell surface; protein details: yeast display (pETcon3, c-Myc); label: biotin.

Data set [21] concerns T21, DBP009 (synthetic construct).
T21 sequence: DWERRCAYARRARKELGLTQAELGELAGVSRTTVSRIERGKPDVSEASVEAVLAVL
The experiment in a line: flow cytometry. The settings on record: specificity for TGCACA; strong preference for designed target; protein on the cell surface; protein details: yeast display (pETcon3, c-Myc); label: biotin.

For data set [22], the system named is T22, DBP082 (synthetic construct).
T22 sequence: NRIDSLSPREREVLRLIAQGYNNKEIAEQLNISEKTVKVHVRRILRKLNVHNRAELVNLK
Briefly: flow cytometry. To be noted: 1 uM dsDNA with avidity; protein on the cell surface; protein details: yeast display (pETcon3, c-Myc); label: biotin.

In data set [23] the test system is T23, DBP083 (synthetic construct).
T23 sequence: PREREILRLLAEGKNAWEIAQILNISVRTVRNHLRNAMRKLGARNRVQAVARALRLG
Briefly: flow cytometry. The settings on record: prefers less than 3 of 13 targets; protein on the cell surface; protein details: yeast display (pETcon3, c-Myc); label: biotin.

Data set [24] deals with T24, DBP028 (synthetic construct).
T24 sequence: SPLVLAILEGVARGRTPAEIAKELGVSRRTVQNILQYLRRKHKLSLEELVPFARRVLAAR
The experiment in a line: flow cytometry. The settings on record: 1 uM dsDNA without avidity; protein on the cell surface; protein details: yeast display (pETcon3, c-Myc); label: biotin.

Data set [25] concerns T25, DBP003 (synthetic construct).
T25 sequence: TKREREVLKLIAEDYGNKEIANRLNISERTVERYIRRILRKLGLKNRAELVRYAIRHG
Briefly: flow cytometry. To be noted: 1 uM dsDNA yeast display; protein on the cell surface; protein details: yeast display (pETcon3, c-Myc); label: biotin.

Data set [26] concerns T26, DBP040 (synthetic construct).
T26 sequence: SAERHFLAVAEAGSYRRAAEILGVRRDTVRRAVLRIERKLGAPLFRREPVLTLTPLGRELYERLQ
The experiment in a line: flow cytometry. The settings on record: 1 uM dsDNA without avidity; protein on the cell surface; protein details: yeast display (pETcon3, c-Myc); label: biotin.

Data set [27] deals with T27, DBP081 (synthetic construct).
T27 sequence: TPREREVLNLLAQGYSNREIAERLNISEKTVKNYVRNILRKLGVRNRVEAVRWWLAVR
Briefly: flow cytometry. The settings on record: 1 uM dsDNA with avidity; protein on the cell surface; protein details: yeast display (pETcon3, c-Myc); label: biotin.

The test system of data set [28] is T28, DBP088 (synthetic construct).
T28 sequence: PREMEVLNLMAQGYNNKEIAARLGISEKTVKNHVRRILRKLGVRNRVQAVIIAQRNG
The experiment in a line: flow cytometry. To be noted: 1 uM dsDNA with avidity; protein on the cell surface; protein details: yeast display (pETcon3, c-Myc); label: biotin.

For data set [29], the system named is T29, DBP086 (synthetic construct).
T29 sequence: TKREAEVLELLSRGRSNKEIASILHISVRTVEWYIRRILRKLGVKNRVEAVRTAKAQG
Briefly: flow cytometry. The settings on record: 1 uM dsDNA with avidity; protein on the cell surface; protein details: yeast display (pETcon3, c-Myc); label: biotin.

In data set [30] the test system is T30, DBP001 (synthetic construct).
T30 sequence: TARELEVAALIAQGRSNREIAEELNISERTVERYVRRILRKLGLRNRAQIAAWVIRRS
Briefly: flow cytometry. The settings on record: 1 uM dsDNA yeast display; prefers 2-3 of 13 targets; protein on the cell surface; protein details: yeast display (pETcon3, c-Myc); label: biotin.

The test system of data set [31] is T31, DBP005 (synthetic construct).
T31 sequence: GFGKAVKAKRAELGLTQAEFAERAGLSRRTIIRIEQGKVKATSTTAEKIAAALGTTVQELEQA
The experiment in a line: flow cytometry. To be noted: 1 uM dsDNA yeast display; protein on the cell surface; protein details: yeast display (pETcon3, c-Myc); label: biotin.

The subject of data set [32] is T32, DBP089 (synthetic construct).
T32 sequence: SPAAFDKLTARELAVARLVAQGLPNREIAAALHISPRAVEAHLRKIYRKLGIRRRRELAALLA
Briefly: flow cytometry. The settings on record: bound most of the 13 targets; protein on the cell surface; protein details: yeast display (pETcon3, c-Myc); label: biotin.

For part of these data: Results from cells or extracts need not show a direct contact. For part of these data: A weaker result is weaker than the reference pair of the same experiment. Tags and fusion partners may be left off the protein sequences shown. For part of these data: The exact form of at least one protein or probe is not confirmed.

As to “CGGAGGTAATGACG (double strand) [target J]”, the binding result in data set [1] and in data set [2] was “binds” each time.

On to “CGGCTGGATTACCG (double strand) [target C]”, for which the binding result in data set [3], in data set [4] and in data set [5] was “binds” throughout.

Turning to “CGGGGAAACGCCCG (double strand) [target H]”, the binding result in data set [6], in data set [7], in data set [8] (strong binding to alternate target), in data set [9] and in data set [10] was “binds” in each case.

On to “GCAGATCTGCACATC (double strand) [target B]”, for which the binding result in data set [11], in data set [12], in [13], in data set [14], in data set [15] and in [16] was “binds” throughout. Moreover, the binding result in data set [17], in data set [18], in data set [19], in [20] and in [21] was “binds” throughout.

Turning to “TAGCAGGATGTGT (double strand) [target A]”, the binding result in data set [22] is “binds”; in data set [23] it was “binds”; in data set [24], “binds”; in data set [25], “binds”; in data set [8] (initial design target), “binds more weakly”; in [26], “binds”. In addition, the binding result in [27], in data set [28], in [29], in data set [30], in data set [31] and in data set [32] was “binds” throughout.
